# From the supplement of paper PMC10849652
# Chains of the proteins cited; added tags and fusions are not shown. Lines headed by an entry give the natural chain unless they say otherwise; changes in a name come on top.
# UniProt Q9GZM8: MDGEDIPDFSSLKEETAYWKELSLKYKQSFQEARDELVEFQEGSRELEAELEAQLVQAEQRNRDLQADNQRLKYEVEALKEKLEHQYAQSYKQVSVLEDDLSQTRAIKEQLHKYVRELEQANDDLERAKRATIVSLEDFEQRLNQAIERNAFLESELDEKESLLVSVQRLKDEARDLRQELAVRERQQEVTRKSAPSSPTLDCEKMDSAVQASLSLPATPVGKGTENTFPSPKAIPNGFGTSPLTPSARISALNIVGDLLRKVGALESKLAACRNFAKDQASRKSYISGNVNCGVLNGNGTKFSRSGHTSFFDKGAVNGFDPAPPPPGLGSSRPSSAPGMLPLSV
# UniProt P56556, whole entry, looked up: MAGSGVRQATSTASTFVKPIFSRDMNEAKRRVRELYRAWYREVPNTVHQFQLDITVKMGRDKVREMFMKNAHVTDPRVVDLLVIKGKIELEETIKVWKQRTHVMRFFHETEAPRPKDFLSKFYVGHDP
# UniProt P49821, whole entry, looked up: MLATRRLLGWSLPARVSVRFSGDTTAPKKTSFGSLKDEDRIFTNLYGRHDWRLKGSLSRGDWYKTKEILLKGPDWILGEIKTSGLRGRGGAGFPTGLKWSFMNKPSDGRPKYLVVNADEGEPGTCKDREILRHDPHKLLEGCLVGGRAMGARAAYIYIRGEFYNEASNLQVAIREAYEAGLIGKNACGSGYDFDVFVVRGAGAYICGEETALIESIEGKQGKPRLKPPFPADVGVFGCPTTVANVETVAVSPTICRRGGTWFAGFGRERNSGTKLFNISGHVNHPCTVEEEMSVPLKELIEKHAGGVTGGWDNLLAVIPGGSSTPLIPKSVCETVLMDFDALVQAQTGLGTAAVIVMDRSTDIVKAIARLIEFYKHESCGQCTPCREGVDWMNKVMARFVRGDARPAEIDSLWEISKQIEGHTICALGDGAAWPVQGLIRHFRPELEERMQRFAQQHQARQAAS
# UniProt Q8NBF2: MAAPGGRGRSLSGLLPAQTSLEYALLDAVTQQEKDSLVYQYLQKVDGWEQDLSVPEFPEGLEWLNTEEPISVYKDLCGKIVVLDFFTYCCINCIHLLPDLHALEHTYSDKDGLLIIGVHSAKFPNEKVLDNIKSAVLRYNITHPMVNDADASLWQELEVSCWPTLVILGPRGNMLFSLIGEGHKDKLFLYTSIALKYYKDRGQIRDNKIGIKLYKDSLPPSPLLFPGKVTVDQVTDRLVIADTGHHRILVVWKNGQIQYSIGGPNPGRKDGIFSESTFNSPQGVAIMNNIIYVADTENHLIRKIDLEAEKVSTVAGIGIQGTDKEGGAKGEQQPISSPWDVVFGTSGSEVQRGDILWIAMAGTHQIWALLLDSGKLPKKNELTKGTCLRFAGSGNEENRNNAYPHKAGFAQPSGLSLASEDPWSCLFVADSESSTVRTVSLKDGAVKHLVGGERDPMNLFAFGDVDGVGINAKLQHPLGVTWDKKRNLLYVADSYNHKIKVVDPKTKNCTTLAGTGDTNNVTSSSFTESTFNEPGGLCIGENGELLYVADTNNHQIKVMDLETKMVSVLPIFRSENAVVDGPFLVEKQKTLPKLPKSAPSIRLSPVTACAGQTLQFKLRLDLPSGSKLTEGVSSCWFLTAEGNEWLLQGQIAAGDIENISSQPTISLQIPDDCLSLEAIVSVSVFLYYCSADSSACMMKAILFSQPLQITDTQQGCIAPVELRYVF
# UniProt Q9UN36: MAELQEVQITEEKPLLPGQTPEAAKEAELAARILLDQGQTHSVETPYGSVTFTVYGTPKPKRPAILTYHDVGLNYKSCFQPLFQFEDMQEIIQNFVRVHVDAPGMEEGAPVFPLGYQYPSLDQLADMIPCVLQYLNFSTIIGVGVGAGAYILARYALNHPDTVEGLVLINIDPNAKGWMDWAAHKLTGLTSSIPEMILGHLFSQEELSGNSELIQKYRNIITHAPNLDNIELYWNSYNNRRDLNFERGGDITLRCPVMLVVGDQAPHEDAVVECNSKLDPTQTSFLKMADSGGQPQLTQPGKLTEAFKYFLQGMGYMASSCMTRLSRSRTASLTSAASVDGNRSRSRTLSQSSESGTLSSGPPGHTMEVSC
# UniProt O76041: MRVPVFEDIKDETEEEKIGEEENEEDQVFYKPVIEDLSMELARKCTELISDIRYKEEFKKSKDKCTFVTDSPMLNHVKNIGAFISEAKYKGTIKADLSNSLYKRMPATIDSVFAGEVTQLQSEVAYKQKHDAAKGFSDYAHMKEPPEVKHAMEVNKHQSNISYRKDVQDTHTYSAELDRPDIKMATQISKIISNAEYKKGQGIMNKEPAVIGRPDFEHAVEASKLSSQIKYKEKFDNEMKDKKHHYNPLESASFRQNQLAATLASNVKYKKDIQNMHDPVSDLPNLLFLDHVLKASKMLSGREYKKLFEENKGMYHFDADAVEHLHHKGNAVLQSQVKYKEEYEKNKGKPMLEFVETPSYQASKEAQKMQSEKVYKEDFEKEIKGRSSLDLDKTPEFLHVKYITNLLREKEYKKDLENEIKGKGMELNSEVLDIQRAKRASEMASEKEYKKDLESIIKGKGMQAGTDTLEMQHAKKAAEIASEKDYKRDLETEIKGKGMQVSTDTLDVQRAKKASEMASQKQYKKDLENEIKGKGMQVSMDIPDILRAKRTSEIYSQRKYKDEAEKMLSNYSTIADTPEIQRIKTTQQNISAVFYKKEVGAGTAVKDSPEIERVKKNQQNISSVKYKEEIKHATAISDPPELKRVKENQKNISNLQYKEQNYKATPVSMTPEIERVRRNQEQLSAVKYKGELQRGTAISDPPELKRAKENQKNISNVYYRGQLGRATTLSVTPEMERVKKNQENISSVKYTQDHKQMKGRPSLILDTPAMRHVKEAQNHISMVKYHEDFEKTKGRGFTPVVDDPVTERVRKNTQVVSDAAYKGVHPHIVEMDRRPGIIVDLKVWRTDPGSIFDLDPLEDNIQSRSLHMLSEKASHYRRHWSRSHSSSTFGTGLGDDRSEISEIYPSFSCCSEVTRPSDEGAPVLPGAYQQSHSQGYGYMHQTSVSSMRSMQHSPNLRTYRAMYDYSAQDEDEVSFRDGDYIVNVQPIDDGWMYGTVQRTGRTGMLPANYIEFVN
# UniProt Q8N8Q9: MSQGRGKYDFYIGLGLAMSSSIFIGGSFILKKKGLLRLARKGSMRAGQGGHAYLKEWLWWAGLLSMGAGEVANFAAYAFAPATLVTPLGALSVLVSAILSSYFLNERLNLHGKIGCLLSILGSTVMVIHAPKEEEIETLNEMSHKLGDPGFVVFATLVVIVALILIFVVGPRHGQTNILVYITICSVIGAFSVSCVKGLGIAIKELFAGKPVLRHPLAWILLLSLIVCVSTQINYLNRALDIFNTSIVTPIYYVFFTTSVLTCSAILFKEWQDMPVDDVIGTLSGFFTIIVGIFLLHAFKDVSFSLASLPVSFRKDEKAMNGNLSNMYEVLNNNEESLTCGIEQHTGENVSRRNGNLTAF
# UniProt Q9BYT8, whole entry, looked up: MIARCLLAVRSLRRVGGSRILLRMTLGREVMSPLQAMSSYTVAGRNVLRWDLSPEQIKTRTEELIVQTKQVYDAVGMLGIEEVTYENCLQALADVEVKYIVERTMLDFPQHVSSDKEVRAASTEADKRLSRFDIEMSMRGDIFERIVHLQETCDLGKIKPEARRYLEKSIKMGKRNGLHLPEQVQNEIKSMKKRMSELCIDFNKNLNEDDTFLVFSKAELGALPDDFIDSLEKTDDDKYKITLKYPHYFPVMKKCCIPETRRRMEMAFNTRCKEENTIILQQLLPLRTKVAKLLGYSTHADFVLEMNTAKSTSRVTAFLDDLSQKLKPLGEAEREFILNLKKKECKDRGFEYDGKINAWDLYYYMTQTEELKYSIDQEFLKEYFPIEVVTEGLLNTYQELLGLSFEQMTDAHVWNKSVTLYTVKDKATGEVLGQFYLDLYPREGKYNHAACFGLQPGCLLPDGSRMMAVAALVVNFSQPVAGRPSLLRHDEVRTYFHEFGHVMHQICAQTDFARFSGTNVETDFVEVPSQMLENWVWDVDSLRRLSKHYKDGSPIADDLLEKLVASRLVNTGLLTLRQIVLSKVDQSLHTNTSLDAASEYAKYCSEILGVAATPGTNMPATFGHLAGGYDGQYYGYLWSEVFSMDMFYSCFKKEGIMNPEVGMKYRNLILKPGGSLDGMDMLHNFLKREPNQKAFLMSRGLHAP
# Some of the results follow.
# Assays:
# Test in all cases: log2 fold change, soluble protein after heating vs DMSO (PISA); higher = thermal stabilisation; K562 lysate, 10 uM; active = over 0.2 and 3.5 SD of the protein, either way, in both replicates (recomputed)
# [1] = compound: C=CC(=O)N1CCC[C@@H](n2nc(-c3ccc(Oc4ccccc4)cc3)c3c(N)ncnc32)C1 [ibrutinib]
# Summary of the method: (§1)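 K562 pellets were dounce-homogenised in PBS pH 7.4 with 1 mM MgCl2, and the crude extract at 1 mg/mL protein was treated with 10 μM compound for 30 min. Aliquots were heated for 3 min across 48°C-58°C, pooled, and brought to 0.5% NP-40 at 4°C; soluble protein was the supernatant after 21,000xg for 90 min. Soluble protein was quantified by TMTpro 16plex LC-MS/MS with channel sums equalised, and reported as log2 fold change in thermal stability against DMSO controls, with values from duplicates.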
# [2] = compound: CC(=O)c1cnc2ccc(-c3cc(Cl)c(O)c(Cl)c3)nc2c1N[C@H]1CC[C@H](CN(C)C)CC1
# Summary of the method: as §1
# [3] = compound: CC(C)(C)Cn1c(N)nc2ccc(-c3[nH]c(C(C)(C)C)nc3-c3ccc(F)cc3)nc21 [ralimetinib]
# Summary of the method: as §1
# [4] = compound: CC(C)(O)CC(=O)NCCn1ccc2ncnc(Nc3ccc(Oc4cccc(C(F)(F)F)c4)c(Cl)c3)c21
# Summary of the method: as §1
# [5] = compound: CC(C)C1=C2N=C(C=C(N2N=C1)NCC3=CC=CC=C3)NCCCCCCN
# Summary of the method: as §1
# [6] = compound: CC1=C(C(CC(=O)N1)C2=CC=C(C=C2)C(F)(F)F)C(=O)NC3=C(C=C4C(=C3)C=NN4)F
# Summary of the method: as §1
# [7] = compound: CC1=C(C2=C(C=C1)C(=O)C3=CC=CC=C3N2CCCN)C
# Summary of the method: as §1
# [8] = compound: CC1=C(C=C(C=C1)NC(=O)C2=CC(=CC=C2)C(C)(C)C#N)NC3=CC4=C(C=C3)N=CN(C4=O)C
# Summary of the method: as §1
# [9] = compound: CC1=C(C=C(C=C1)NC(=O)C2=CC(=CC=C2)N(C)C)NC(=O)C3=CC=C(C=C3)O
# Summary of the method: as §1
# [10] = compound: CC1=CC=C(C=C1)SC2=C3C=C(SC3=CN=C2)C(=O)N
# Summary of the method: as §1
# [11] = compound: CCCS(=O)(=O)Nc1ccc(F)c(C(=O)c2c[nH]c3ncc(-c4ccc(Cl)cc4)cc23)c1F [vemurafenib]
# Summary of the method: as §1
# [12] = compound: CCCS(=O)(=O)Nc1ccc(F)c(C(=O)c2c[nH]c3ncc(Cl)cc23)c1F
# Summary of the method: as §1
# [13] = compound: CCN(CCCOc1ccc2c(Nc3cc(CC(=O)Nc4cccc(F)c4)[nH]n3)ncnc2c1)CCOP(=O)(O)O [barasertib]
# Summary of the method: as §1
# [14] = compound: CC[C@@H]1C(=O)N(C)c2cnc(Nc3ccc(C(=O)NC4CCN(C)CC4)cc3OC)nc2N1C1CCCC1
# Summary of the method: as §1
# [15] = compound: CC[C@@H]1C(=O)N(C)c2cnc(Nc3ccc(C(=O)N[C@H]4CC[C@H](N5CCN(CC6CC6)CC5)CC4)cc3OC)nc2N1C(C)C [volasertib]
# Summary of the method: as §1
# [16] = compound: CCn1c(C(=O)N(C2CC2)C2CC2)cc2c3c(ncn3C)c(Nc3cc(C)n(C)n3)nc21
# Summary of the method: as §1
# [17] = compound: CCn1cc(-c2ccnc3[nH]c(-c4cccc(CN(C)C)c4)cc23)c(-c2ccc(NC(=O)N(C)C)cc2)n1
# Summary of the method: as §1
# [18] = compound: CN1CCC(CNc2ccc3ncc(-c4cccc(OC(F)(F)F)c4)n3n2)CC1
# Summary of the method: as §1
# [19] = compound: CN1CCN(CCOc2cc(OC3CCOCC3)c3c(Nc4c(Cl)ccc5c4OCO5)ncnc3c2)CC1 [saracatinib]
# Summary of the method: as §1
# [20] = compound: CN1CCN(c2nc(C3=C(c4c[nH]c5ccccc45)C(=O)NC3=O)c3ccccc3n2)CC1 [sotrastaurin]
# Summary of the method: as §1
Target,log2 fold change [1],log2 fold change [2],log2 fold change [3],log2 fold change [4],log2 fold change [5],log2 fold change [6],log2 fold change [7],log2 fold change [8],log2 fold change [9],log2 fold change [10],log2 fold change [11],log2 fold change [12],log2 fold change [13],log2 fold change [14],log2 fold change [15],log2 fold change [16],log2 fold change [17],log2 fold change [18],log2 fold change [19],log2 fold change [20]
NDEL1 isoform 2 (UniProt Q9GZM8),inactive: 0.005,inactive: -0.001,inactive: -0.011,inactive: -0.042,inactive: -0.022,inactive: -0.013,inactive: -0.036,inactive: 0.043,inactive: 0.026,inactive: 0.016,inactive: -0.088,inactive: 0.062,inactive: -0.029,inactive: 0.112,inactive: 0.019,inactive: -0.011,inactive: 0.145,inactive: -0.047,inactive: 0.02,inactive: 0.061
NDUFA6 (UniProt P56556),inactive: -0.037,inactive: 0.037,inactive: 0.016,inactive: -0.137,inactive: -0.044,inactive: 0.005,inactive: 0.062,inactive: 0.062,inactive: 0.063,inactive: -0.006,inactive: 0.065,inactive: 0.004,inactive: 0.045,inactive: -0.064,inactive: 0.063,inactive: -0.015,inactive: -0.103,inactive: -0.123,inactive: 0.019,inactive: 0.191
NDUFV1 (UniProt P49821),inactive: 0.019,inactive: -0.024,inactive: 0.003,inactive: -0.011,inactive: -0.014,inactive: 0.027,inactive: 0.01,inactive: 0.027,inactive: -0.004,inactive: 0.005,inactive: 0.036,inactive: 0.015,inactive: -0.03,inactive: 0.035,inactive: 0.006,inactive: -0.015,inactive: -0.089,inactive: 0.003,inactive: 0.021,inactive: 0.029
NHLRC2 (UniProt Q8NBF2),inactive: -0.039,inactive: 0,inactive: 0.013,inactive: -0.02,inactive: 0.027,inactive: -0.021,inactive: 0.091,inactive: 0.013,inactive: 0.026,inactive: 0.024,inactive: 0.026,inactive: 0.015,inactive: 0.002,inactive: -0.07,inactive: -0.045,inactive: 0.002,inactive: -0.027,inactive: 0.06,inactive: -0.001,inactive: 0.001
NDRG2 (UniProt Q9UN36),inactive: -0.002,inactive: 0,inactive: -0.026,inactive: -0.012,inactive: -0.004,inactive: 0.008,inactive: -0.027,inactive: -0.016,inactive: 0.012,inactive: 0,inactive: -0.035,inactive: 0.017,inactive: -0.012,inactive: 0.053,inactive: 0.008,inactive: -0.015,inactive: -0.022,inactive: 0.001,inactive: 0.013,inactive: 0.004
NEBL (UniProt O76041),inactive: 0.087,inactive: 0.052,inactive: 0.009,inactive: -0.003,inactive: -0.015,inactive: -0.037,inactive: -0.061,inactive: -0.006,inactive: -0.012,inactive: -0.025,inactive: 0.034,inactive: -0.027,inactive: 0.066,inactive: 0.039,inactive: 0.014,inactive: -0.014,active: 0.29,inactive: -0.002,inactive: -0.035,inactive: 0.085
NIPA2 (UniProt Q8N8Q9),inactive: 0.149,inactive: -0.021,inactive: 0.055,inactive: -0.048,inactive: 0.044,inactive: -0.057,inactive: -0.062,inactive: 0.021,inactive: -0.093,inactive: -0.054,inactive: 0.064,inactive: 0.081,inactive: -0.13,inactive: 0.106,inactive: 0.025,inactive: 0.181,inactive: -0.027,inactive: 0.169,inactive: 0.057,inactive: 0.02
NLN (UniProt Q9BYT8),inactive: -0.012,inactive: -0.007,inactive: -0.003,inactive: -0.012,inactive: -0.016,inactive: -0.021,inactive: 0.004,inactive: 0.013,inactive: 0.001,inactive: -0.008,inactive: 0.024,inactive: -0.005,inactive: 0.038,inactive: 0.009,inactive: 0.02,inactive: -0.009,inactive: 0.078,inactive: -0.141,inactive: -0.009,inactive: 0.002
